{"source": "patent US20070249526A1", "about": "(priority 2003, published 2007)", "assay": "general procedure: solution-phase peptide synthesis; BOP/DIPEA (fragment coupling and cyclisation); Example 19: HBTU/DIPEA, PyBOP/HOB", "details": "for isolated yield: scale of the general procedure 100 g linear hexapeptide per cyclisation batch", "key": {"[1]": {"details": "late stage modification step, TFA salt, acetate salt"}}, "note": "Values joined by “and” are separate entries in the source; they are usually repeats but may differ in a detail not shown here. Equal values may be shown once.", "data": [{"substance": "Ac-Phe-Orn(Boc)-Pro-D-Cha-Trp-Arg-OH", "values": [{"measurement": "crude purity (method not given)", "setting": "coupling step, 1H nmr, ISMS and rpHPLC, TFA salt, acetate salt", "value": ">94", "unit": "%"}, {"measurement": "step yield", "setting": "coupling step, TFA salt, acetate salt, run 1", "value": 80, "unit": "%"}, {"measurement": "step yield", "setting": "coupling step, TFA salt, acetate salt, run 2", "value": 72, "unit": "%"}, {"measurement": "crude purity (method not given)", "setting": "coupling step, analytical rpHPLC (214 nm), 1H nmr, ISMS, TFA salt, acetate salt", "value": ">94", "unit": "%"}, {"measurement": "step yield", "setting": "[1]", "value": 96, "unit": "%"}]}, {"substance": "Ac-Phe-Orn-Pro-Cha-Trp-Arg-OH", "values": [{"measurement": "crude purity (method not given)", "setting": "late stage modification step, 1H nmr, ISMS and rpHPLC, TFA salt, acetate salt", "value": "greater than 93%"}, {"measurement": "step yield", "setting": "[1]", "value": 95, "unit": "%"}, {"measurement": "crude purity (method not given)", "setting": "late stage modification step, analytical rpHPLC (214 nm), 1H nmr, ISMS, TFA salt, acetate salt", "value": ">95", "unit": "%"}]}, {"substance": "Ac-Phe[Orn-Pro-D-Cha-Trp-Arg]", "values": [{"measurement": "cyclisation yield", "setting": "cyclisation step, 2TFA, side-chain lactam ring", "value": "about 74%"}, {"measurement": "crude HPLC purity", "setting": "cyclisation step, 214 nm, TFA salt, acetate salt, side-chain lactam ring", "value": "greater than 90%"}, {"measurement": "cyclisation yield", "setting": "cyclisation step, TFA salt, acetate salt, side-chain lactam ring, run 1", "value": "49% and 51% and 33%"}, {"measurement": "final purity (method not given)", "setting": "cyclisation step, analytical rpHPLC (214 nm), 1H nmr, ISMS, TFA salt, acetate salt, side-chain lactam ring", "value": ">97", "unit": "%"}, {"measurement": "isolated mass", "setting": "whole synthesis, TFA salt, acetate salt, side-chain lactam ring", "value": 64, "unit": "g"}, {"measurement": "isolated yield", "setting": "whole synthesis, overall from commercially available amino acids, TFA salt, acetate salt, side-chain lactam ring", "value": 12.5, "unit": "%"}, {"measurement": "isolated yield", "setting": "whole synthesis, overall, 2HOAc, side-chain lactam ring", "value": 25, "unit": "%"}]}, {"substance": "AcPheOrn(Boc)Pro(d)ChaTrp(For)ArgOEt", "values": [{"measurement": "step yield", "setting": "coupling step, TFA salt, acetate salt", "value": 90, "unit": "%"}]}]}
